# Experimental data reported in PubChem BioAssay AID2685 (National Center for Advancing Translational Sciences (NCATS), 2010).
# The campaign covered roughly 320,000 compounds. About 2,100 (0.66%) were called active. Inconclusive results, whose numbers are uncertain, are shown with a selection of clear calls. Calls follow the shape of the dose curve; as a rule, active = well fitted inhibition curve with a large enough effect in the signal ratio, with a control signal flat (not every such curve was filed as active); inconclusive = small, poorly fitted or top-dose-only effect, or effect the other way, or a change in a side signal; inactive = flat fitted curve, though single readings scatter; the % refers to the signal ratio. Potencies of inconclusive entries are doubtful fits and often do not repeat.
# Experiment: qHTS Assay for Lipid Storage Modulators in Drosophila S3 Cells
# Details: BODIPY lipid droplet fluorescence, 18-24 h, cells fed with added oleic acid; lipid storage change, negative = inhibition: at 46.1 µM (top of the series) unless noted
# Summary of the method: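 Drosophila S3 cells loaded with oleic acid (400 uM, as added) and compounds at several concentrations; lipid droplets imaged by 488-nm laser-scanning cytometry, 500–530 nm intensity and object ratio to cell channel. Percent activity normalized to 20 uM Triacsin C.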
# % is scaled to controls: 0 for no effect and ±100 for the full control effect; potency is read from the fitted curve at half-maximal effect.
SMILES,"lipid storage change, negative = inhibition",Potency
CCOc1cnc(C(=O)NNC(=O)C(Br)C(C)C)o1 (stereo not drawn),inconclusive: -9.97%,–
CCOc1ccc(-c2noc(CCC(=O)NCC3CCCO3)n2)cc1OC (stereo not drawn),inconclusive: -55.7%,–
Cc1c(Cl)cccc1S(=O)(=O)Nc1ccnn1C,inconclusive: 1.32%,–
CCOC(=O)c1cnc(-n2nc(C)cc2C)nc1NC1CCCC1,–,"inconclusive: 29.1 µM [cytotoxic, single point]"
N#Cc1cccc(NCC(=O)Nc2ccc3c(c2)OCCO3)c1,inconclusive: 24.9%,–
Clc1ccc(Oc2cnc3ccccc3n2)cc1,–,"inconclusive: 29.1 µM [falling, single point]"
COc1cc2c(cc1OC)CN(c1nc(CN3CCOCC3)nc3sc4c(c13)CCCC4)CC2,inconclusive: -5.87%,–
CC(Cc1cccs1)NC(=O)CCCn1nnnc1CN1CCOCC1 (stereo not drawn),inconclusive: 17.7%,–
COc1ccc2nc(SCC(=O)c3ccco3)[nH]c2c1,inconclusive: -12.4%,–
COC(=O)c1ccc(OC(=O)C23CCC(C)(C(=O)O2)C3(C)C)cc1 (stereo not drawn),inconclusive: -32.8%,–
COC(=O)/C=C1/S/C(=N/NC(=O)c2ccccc2C)NC1=O,inconclusive: -32.8%,–
Cc1ccc(NC(=O)COc2ccc(Br)cn2)cc1,inconclusive: 2.21%,–
CC(=O)Nc1ccc(NC(=O)COC(=O)CCNS(=O)(=O)c2c(Cl)cccc2Cl)cc1,inconclusive,–
COC(=O)c1ccc(NC(=O)CCCCCn2nnc3ccccc3c2=O)cc1,inconclusive: 53.5%,–
Cc1ccc2nc(-c3ccc(NC(=O)CCS(=O)(=O)c4ccccc4)cc3)sc2c1,–,"inconclusive: 29.1 µM [falling, single point]"
CCCCn1c(-c2cccnc2)nc2cc3[nH]c(=O)c(C(C)C)nc3cc21,inconclusive: -47.6%,–
Cc1ccc(C(=O)Nc2cccc(-c3cnc4ccccc4n3)c2)cc1,inconclusive: 29.7%,–
O=P(C(=NCCO)NO)(N1CCOCC1)N1CCOCC1,inconclusive: 14.4%,–
CCSc1nnc(NC(=O)C2Cc3ccccc3CN2S(=O)(=O)CC)s1 (stereo not drawn),–,"inconclusive: 20.6 µM [rising, single point]"
O=C1c2nccnc2C(=O)N1c1ccc(C(F)(F)F)cc1,–,"inconclusive: 0.184 µM [falling, full curve]"
N#CC1=C(N)N(c2ccccc2Sc2ccccc2)C(=O)C1,inconclusive: -50.3%,–
COc1cccc(CNC(=O)Cn2ccc([N+](=O)[O-])n2)c1,inconclusive: 20%,–
CCc1ccc(C(=O)N/N=C/c2cccc3ccccc23)nc1,inconclusive: 4.53%,–
COc1ccc(Br)cc1CN(C)C(=O)c1cc(Cl)c2c(c1)OCCO2,inconclusive: 24.2%,–
CCC(=O)Nc1nonc1-c1nc2ccccc2n1CCC(C)C,inconclusive: 2.85%,–
O=C(CSc1cn[nH]n1)Nc1nc2ccccc2s1,–,"inconclusive: 0.13 µM [falling, full curve, poor fit]"

SMILES,"lipid storage change, negative = inhibition",Potency
CC(C)CCN1CCN(Cc2coc3ccccc3c2=O)CC1CCO (stereo not drawn),–,"inconclusive: 29.1 µM [activator, single point]"
O=C1NCCCC1C(=O)Nc1cccc(C(F)(F)F)c1 (stereo not drawn),inconclusive: -2.07%,–
CC1CCN(S(=O)(=O)c2ccc(C(=O)N3CCCC(C(F)(F)F)C3)cc2)CC1 (stereo not drawn),inconclusive,–
COc1ccc(-c2cc(N3C(=O)Nc4ccccc4N3O)n[nH]2)c(OC)c1,inconclusive: 10.1%,–
COc1cccc(N(CC(=O)N2CCN(C)CC2)S(=O)(=O)c2ccc(C)cc2)c1,inconclusive: -3.14%,–
COc1cccc(C(=O)CN2C3=NCCCN3c3ccccc32)c1,inconclusive: 11.7%,–
CC(=O)c1cccc(Nc2nc(-c3ccccc3)nc3ccccc23)c1,–,"inconclusive: 18.4 µM [falling, single point]"
COc1ccccc1CN1CC(C(=O)NCc2cccc(Cl)c2)CCC1=O (stereo not drawn),inconclusive: 56.7%,–
COc1cccc(C2=NOC(C(=O)N3CCN(Cc4ccccc4)CC3)C2)c1OC (stereo not drawn),inactive,–
CC(=O)N1CCCc2cc(S(=O)(=O)N3CCCC3)ccc21,inconclusive: 4.21%,–
CCCN1CC23C=CC(O2)C(C(=O)O)C3C1=O (stereo not drawn),inconclusive: -4.7%,–
Cc1ccc(/C=N/NC(=O)c2cc(-c3ccncc3)nc3ccccc23)o1,inconclusive: 127%,–
CCc1ccc(NC(=O)Cn2cnc3sc(C)c(S(=O)(=O)N4CCOCC4)c3c2=O)cc1,–,"inconclusive: 20.6 µM [activator, single point]"
COc1ccc(CCNC(=O)CCS(=O)(=O)c2ccc(C)cc2)cc1OC,inconclusive: 31%,–
O=C(Cc1n[nH]c(=O)c2ccccc12)NCc1ccccn1,inconclusive: 4.26%,–
C=CCN(c1nc(C)cc(OC)n1)S(=O)(=O)c1ccc(C)cc1,inconclusive: -84.7%,–
NC(=O)COC(=O)c1ccccc1Oc1ccccc1,inconclusive: 28.4%,–
Cc1cc(C)c(N2C(=NC(=O)CCCC(=O)O)SC3CS(=O)(=O)CC32)c(C)c1 (stereo not drawn),–,"inconclusive: 6.51 µM [falling, single point]"
COc1ccc2ccccc2c1/C=N/NC(=O)c1ccc(C)nc1,inconclusive: 26.1%,–
Cc1ccc(NC(=O)c2ccco2)c(NC(=O)C2CCCO2)c1 (stereo not drawn),inconclusive: -51.5% [cytotoxic] [at 0.00295 µM],–
Cc1cc(C)n(S(=O)(=O)c2cccc([N+](=O)[O-])c2)n1,–,"inconclusive: 29.1 µM [activator, single point]"
CC(C)[C@H](N)c1cn([C@@H](CO)C(=O)N2CCNCC2)nn1,inconclusive: 14.6%,–
COc1ccc(OCCNS(=O)(=O)c2ccc3oc4ccccc4c3c2)cc1,inconclusive: -1.74%,–
CCn1cc(-c2cc(C(=O)O)c3ccccc3n2)c(C)n1,inconclusive: 5.09%,–
CSc1ccccc1C(=O)N1CCCC(CNC(=O)c2ccc(F)cc2)C1 (stereo not drawn),inconclusive: -40.3%,–
COc1ccc(C2(c3ccc(OC)cc3)NC(=O)N(CC(=O)Nc3ccc(C(=O)N(C)C)cc3)C2=O)cc1,–,"inconclusive: 14.6 µM [activator, partial curve, poor fit]"

SMILES,"lipid storage change, negative = inhibition",Potency
Nc1c(C(=O)c2ccccc2)sc2nsc(SCCN3CCCC3)c12,–,"inconclusive: 18.4 µM [falling, single point]"
COc1ccccc1/C=C(/CC(=O)NCc1ccc2c(c1)OCO2)c1nc2ccccc2s1,inconclusive: -51.1%,–
Cc1cc(Oc2ccc(=O)n(C)n2)nc(SCC(N)=O)n1,inconclusive: 12.9%,–
O=C(CCC1CCCN(C(=O)CCCc2ccccc2)C1)N1CCN(c2ccccn2)CC1 (stereo not drawn),inconclusive: -20.4%,–
CN(C)C(=O)C1Cc2ccccc2CN1S(=O)(=O)c1ccc(F)cc1 (stereo not drawn),inconclusive: 20.7%,–
O=[N+]([O-])CC(=Nc1ccc(Cl)cc1)N/N=C\c1oc(O)c2ccccc12,inconclusive: 60.2%,–
COC(=O)CSc1nc2ccc(N)cc2s1,–,"inconclusive: 0.184 µM [falling, full curve]"
CC(C)(C)c1cc[n+](-c2[nH]c(=O)sc2/C=N/N=C(\[O-])c2ccccc2)cc1,–,"inconclusive: 23.1 µM [activator, single point]"
Cc1ccc(C)c(NC(=S)N2CCC(NC(=O)c3ccccc3)CC2)c1,inconclusive: 133%,–
CCOc1ccc(OCCCCN2CCCC2)cc1,–,"inconclusive: 0.0259 µM [falling, single point]"
COc1ccc(CCN(Cc2cc3cc(C)ccc3[nH]c2=O)C(=O)N2CCCC2)cc1OC,–,"inconclusive: 1.84 µM [activator, partial curve]"
O=C(N/N=C/c1cn(-c2ccccc2)nc1-c1cccs1)c1ccccc1F,inconclusive: 34.7%,–
CCCC(C)c1nnc(NC(=O)C(=O)OCC)s1 (stereo not drawn),inconclusive: 14.8%,–
CCC(C)NC(=O)COc1ccc(OCc2ccccc2)cc1 (stereo not drawn),inconclusive: 0.337%,–
Oc1ccc(C[C@H]2CNCCN2CCc2cc(C(F)(F)F)cc(C(F)(F)F)c2)cc1,inconclusive: 21.7%,–
CCOc1cc(/C=N/NC(=O)c2nnn(-c3nonc3N)c2C)ccc1OCc1ccc(F)cc1,–,"inconclusive: 0.0046 µM [activator, full curve, poor fit]"
COCCC(=O)N1CCC(Oc2ccc(C(=O)NCCC3=CCCCC3)cc2)CC1,–,"inconclusive: 0.0058 µM [activator, full curve, poor fit]"
CCCCN(C(=O)c1ccc(N2CCCC2=O)cc1)c1c(N)n(CC(C)C)c(=O)[nH]c1=O,inconclusive: 24.3%,–
Cc1c(NC(=O)c2ccc(COc3ccc4ccccc4c3)o2)c(=O)n(-c2ccccc2)n1C,inconclusive: 39.7%,–
COc1cc(NC(=O)CN2C(=O)NC(c3ccccc3)(c3ccccc3)C2=O)cc(OC)c1,–,"inconclusive: 29.1 µM [activator, single point]"
CC(Nc1nc(N2CCCCC2)nc2ccccc12)c1ccccc1 (stereo not drawn),–,"inconclusive: 1.03 µM [rising, full curve, poor fit]"
O=C(NCc1ccccc1)c1onc(CSc2ccccn2)c1C(=O)NCc1ccccc1,inconclusive: 8.01%,–
Cc1cc(C)c[n+](-c2nc3ccccc3nc2C(=C=[N-])C#N)c1,inconclusive: -23.5%,"inconclusive: 14.6 µM [activator, single point]"
CNC(=S)NCC(O)c1ccc([N+](=O)[O-])cc1 (stereo not drawn),inconclusive: -10.5%,–
O=C1CCCC(=NCc2ccco2)C1,–,"inconclusive: 1.03 µM [falling, full curve]"

# Not a retest: three of the compounds above.
SMILES,"lipid storage change, negative = inhibition",Potency
CCCCN(C(=O)c1ccc(N2CCCC2=O)cc1)c1c(N)n(CC(C)C)c(=O)[nH]c1=O,inconclusive: 24.3%,–
Cc1c(NC(=O)c2ccc(COc3ccc4ccccc4c3)o2)c(=O)n(-c2ccccc2)n1C,inconclusive: 39.7%,–
COc1cc(NC(=O)CN2C(=O)NC(c3ccccc3)(c3ccccc3)C2=O)cc(OC)c1,–,"inconclusive: 29.1 µM [activator, single point]"

# Three compounds out of the list, sorted by length of the SMILES, falling.
SMILES,"lipid storage change, negative = inhibition",Potency
COc1cccc(C2=NOC(C(=O)N3CCN(Cc4ccccc4)CC3)C2)c1OC (stereo not drawn),inactive,–
O=P(C(=NCCO)NO)(N1CCOCC1)N1CCOCC1,inconclusive: 14.4%,–
O=C(CSc1cn[nH]n1)Nc1nc2ccccc2s1,–,"inconclusive: 0.13 µM [falling, full curve, poor fit]"
